From PubChem BioAssay AID540256 (National Center for Advancing Translational Sciences (NCATS), 2011)
Out of some 300,000 compounds screened, about 3,700 (1.2%) were called active. The shares of active, inactive and inconclusive entries below differ from those in the screen. The call rests on the fitted dose curve; tested in HEK293 cells. Where the call is inconclusive, the potency comes from a doubtful curve fit.

assay: qHTS for Inhibitors of binding or entry into cells for Lassa Virus; settings: Lassa virus pseudotype entry inhibition, cell reporter; activity change, negative = inhibition: at 37.9 µM (top of the series) unless noted; further: nearly all actives have a fitted effect of over 50% in size
On the % scale 0 is the no-effect control and ±100 the full control effect; potency means the concentration at half of the fitted maximal effect.

| SMILES | Potency | activity change, negative = inhibition |
| --- | --- | --- |
| CC(=O)c1ccc(N2C(=O)N(Cc3cccc(C(F)(F)F)c3)c3ccccc3S2(=O)=O)cc1 | inconclusive: 10 µM [inhibitor, partial curve] | – |
| O=C(NC1CCCCCC1)C1c2ccccc2C(=O)N1Cc1cccs1 (centres undefined) | inconclusive: 18.4 µM [inhibitor, single point] | – |
| O=[N+]([O-])c1ccc(O)c(/C=N/n2cnnc2)c1 | inconclusive: 1.12 µM [inhibitor, single point] | – |
| COc1ccccc1NC(=O)N(Cc1ccco1)Cc1cc2cc(C)cc(C)c2[nH]c1=O | inconclusive: 20 µM [inhibitor, single point] | – |
| C/C(CC(=O)Nc1ccc2c(c1)OCCO2)=N\NC(=O)COc1ccccc1 | – | inactive: 6.1% |
| COc1cc(NC(=O)c2c(-c3ccc(C)cc3)nnc3ccccc23)cc(OC)c1OC | inconclusive: 2.82 µM [activator, full curve, poor fit] | – |
| Oc1cccc(-c2nnc(-c3cccc(O)c3)nn2)c1 | inconclusive: 6.31 µM [inhibitor, full curve, poor fit] | – |
| COc1ccccc1NS(=O)(=O)c1cccc(NC(=O)Nc2ccccc2)c1 | active: 14.6 µM | – |
| O=C(Nc1ccc2c(c1)CN(Cc1ccc(CO)o1)CC2)c1ccc(C(F)(F)F)cc1 | inconclusive: 35.5 µM [inhibitor, partial curve, poor fit] | – |
| CC(=O)Nc1cc(C(F)(F)F)ccc1OCC1CCCO1 (centres undefined) | – | inactive: 14% |
| Cn1nnnc1SCC(=O)N1CCN(c2ccc(Cl)cc2)CC1 | – | inactive: -1.2% |
| COc1cccc(N2C(=O)CC(NNC(=O)c3cccs3)C2=O)c1 (centres undefined) | – | inactive: 12.1% |
| CCOC(=O)c1c(-c2ccccc2)oc2ccc(NS(=O)(=O)c3ccc(OC)cc3)cc12 | inconclusive: 3.55 µM [inhibitor, partial curve, poor fit] | – |
| CCCCCCCSc1cc(OC)c(CCNC)cc1OC | inconclusive: 35.5 µM [inhibitor, single point] | – |
| CC(=O)Nc1cccc(C(=O)OCC(=O)NNC(=O)c2ccc([N+](=O)[O-])cc2)c1 | inconclusive: 1.12 µM [inhibitor, full curve, poor fit] | – |
| O=C(CSc1nc(=O)n(CCN2CCOCC2)c2c1CCCC2)Nc1ccc(F)cc1F | inconclusive: 7.08 µM [inhibitor, full curve] | – |
| O=C(NCC1CCN(S(=O)(=O)c2ccccc2)CC1)Nc1ccc(F)cc1 | inconclusive: 20 µM [inhibitor, partial curve, poor fit] | – |
| CCSc1c(-c2ccccc2)nc2c(C)cccc2c1C(=O)O | inconclusive: 11.2 µM [activator, partial curve, poor fit] | – |
| O=[N+]([O-])c1cc(-c2nc(-c3ccccc3)no2)ccc1NCC1CCCO1 (centres undefined) | inconclusive: 22.4 µM [inhibitor, partial curve, poor fit] | – |
| O=C(Cc1cccs1)NCCS(=O)(=O)N1CCN(c2ccccc2F)CC1 | inconclusive: 0.0891 µM [inhibitor, full curve, poor fit] | – |
| Cc1nc(SC2CC(=O)N(c3ccc([N+](=O)[O-])cc3)C2=O)nc2c1CCCC2 (centres undefined) | – | inactive: -6.69% |
| O=C(c1cc(C2CC2)nn1-c1ccccc1)N1CCN(c2ccccc2O)CC1 | inconclusive: 2 µM [inhibitor, full curve] | – |
| O=C(NC1CCCCC1)c1ccc(S(=O)(=O)N2CCCC2)cc1 | inconclusive: 29.1 µM [inhibitor, single point] | – |

Four compounds drawn at random from those above:

| SMILES | Potency | activity change, negative = inhibition |
| --- | --- | --- |
| O=C(NCC1CCN(S(=O)(=O)c2ccccc2)CC1)Nc1ccc(F)cc1 | inconclusive: 20 µM [inhibitor, partial curve, poor fit] | – |
| CC(=O)Nc1cc(C(F)(F)F)ccc1OCC1CCCO1 (centres undefined) | – | inactive: 14% |
| O=C(Cc1cccs1)NCCS(=O)(=O)N1CCN(c2ccccc2F)CC1 | inconclusive: 0.0891 µM [inhibitor, full curve, poor fit] | – |
| O=C(NC1CCCCCC1)C1c2ccccc2C(=O)N1Cc1cccs1 (centres undefined) | inconclusive: 18.4 µM [inhibitor, single point] | – |

(cont.)

| SMILES | Potency | activity change, negative = inhibition |
| --- | --- | --- |
| O=C1NC(=O)N(Cc2ccccc2)CC1Br (centres undefined) | inconclusive: 11.2 µM [inhibitor, partial curve, poor fit] | – |
| COc1ccc(NC(=O)c2c(NC(=O)CNCc3ccco3)sc3c2CCC3)cc1 | – | inactive: -14.2% |
| Cc1ccc(C(=O)Oc2cc(N)n(S(=O)(=O)c3ccc(C)cc3)n2)cc1 | inconclusive: 0.0046 µM [inhibitor, full curve, poor fit] | – |
| O=C(COC(=O)c1cccs1)Nc1ccc(Cl)cn1 | – | inactive: 1.07% |
| O=C(CSc1nc(-c2ccc(F)cc2)cc(C(F)(F)F)n1)NCc1ccccc1 | inconclusive: 12.6 µM [inhibitor, single point] | – |
| CCN1CCN(c2ccc(S(=O)(=O)N3CCOCC3)cc2NC(=O)c2ccc(Cl)s2)CC1 | – | inactive: 5.81% |
| COC(=O)CN1C(=O)C(C)(C)Oc2ccc(C(=O)Nc3cccc(OC)c3)cc21 | inconclusive: 22.4 µM [inhibitor, single point] | – |
| COc1cc(C2C(=O)N(C3CCCCC3)CC(=O)N2C2CCCC2)ccc1OC(C)C (centres undefined) | – | inactive: 11.2% [at 46.1 µM] |
| Cc1cc(C(=O)CSc2nnc(-c3ccco3)o2)c(C)n1-c1ccc2c(c1)OCCO2 | inconclusive: 35.5 µM [inhibitor, single point] | – |
| O=C(O)COCC(=O)NC1CCN(Cc2ccccc2)CC1 | – | inactive: -3.62% [at 46.1 µM] |
| Clc1cccc(Nc2nc(-c3ccncc3)nc3ccccc23)c1 | inconclusive: 11.2 µM [inhibitor, partial curve] | – |
| O=C(CNC(=O)c1ccco1)Nc1ccc(F)cc1 | inconclusive: 1.26 µM [inhibitor, single point] | – |
| O=C(CSc1nnnn1-c1ccc(Cl)cc1)NNC(=O)c1ccc([N+](=O)[O-])cc1 | – | inactive: 11.4% |
| CC(=O)Nc1ccc(NC(=O)c2ccccc2CCc2ccccc2)cc1 | active: 10 µM | – |
| CC(=O)N1CCSc2ccc(S(=O)(=O)NCCc3ccc(C)cc3)cc21 | active: 7.94 µM | – |
| CCCS(=O)(=O)c1ncc(Cl)c(C(=O)N2CCN(c3ccc(OC)cc3)CC2)n1 | inconclusive: 11.2 µM [inhibitor, partial curve, poor fit] | – |
| COc1ccc(C(=O)C2CCCN(Cc3cccn3-c3ccccn3)C2)c(OC)c1 (centres undefined) | inconclusive: 17.8 µM [inhibitor, single point] | – |
| Cc1c(C)n(CCN(C)C)c2ncnc(NCc3ccccc3)c12 | – | inactive: 0.0598% |
| O=C1c2ccccc2S(=O)(=O)c2cc(C(=O)N(c3ccccn3)c3ccccn3)ccc21 | inconclusive: 3.98 µM [inhibitor, partial curve, poor fit] | – |
| O=C(CCc1nc(-c2ccccn2)no1)NCc1ccc2c(c1)OCO2 | – | inactive: 13.8% |
| Cc1ccc(C(=O)OC/C(O)=C(\C#N)c2nc3ccccc3[nH]2)cc1S(=O)(=O)N1CCOCC1 | – | inactive: 1.97% |
| COc1cc(/C=C2\SC(=O)N(CC(=O)Nc3ccccc3F)C2=O)cc(Cl)c1O | inconclusive: 20 µM [inhibitor, partial curve, poor fit] | – |
| COc1ccc(C2C(C(=O)Nc3cccc(C)n3)c3ccccc3C(=O)N2C)cc1 (centres undefined) | inconclusive: 18.3 µM [inhibitor, partial curve] | – |

| SMILES | Potency | activity change, negative = inhibition |
| --- | --- | --- |
| O=S(=O)(Cc1noc(-c2ccc(Cl)cc2)n1)Cc1ccco1 | – | inactive: -1.12% [at 46.1 µM] |
| N#C/C(=C\c1ccc(Oc2ccc(C(F)(F)F)cc2[N+](=O)[O-])cc1)c1nc2ccccc2[nH]1 | inconclusive: 35.5 µM [inhibitor, single point] | – |
| CCCCn1c(N)c(N(CCOC)C(=O)c2cc(-c3ccccc3Cl)nc3ccccc23)c(=O)[nH]c1=O | – | inactive: 1.33% |
| CC(=O)Nc1ccc(S(=O)(=O)N2CCSC2c2ccco2)cc1 (centres undefined) | inconclusive: 0.631 µM [inhibitor, partial curve, poor fit] | – |
| COC1=CC(=O)c2c(ccc3ncnc(N)c23)C1=O | inconclusive: 2 µM [inhibitor, full curve, poor fit] | – |
| O=C(Nc1cccc(C(=O)Nc2ccccc2F)c1)c1ccccc1 | – | inactive: -10% [at 46.1 µM] |
| Cc1cc(NC(=O)CN(C)CCOc2ccccc2)ccc1Br | – | inactive: -24.6% |
| CCCN(C(=O)c1cccs1)c1nnc(-c2ccncc2)s1 | – | inactive: 5.79% |
| Cc1cccc(NC(=O)c2ccc(C(=O)Nc3cccc(C)c3C)cc2)c1C | – | inactive: 21.6% [at 46.1 µM] |
| COc1ccc(C2CC(c3cccs3)=NN2C(=O)COC(=O)C2CCCCC2)cc1OC (centres undefined) | inconclusive: 15.8 µM [inhibitor, single point] | – |
| O=C1c2cccnc2Oc2ccc(Cl)cc2N1Cc1ccc(F)cc1 | inconclusive: 29.1 µM [inhibitor, single point] | – |
| CCn1c(SCC(=O)c2ccc(Cl)cc2)nnc1-c1ccoc1C | – | inactive: 0.658% |
| Cc1occc(=O)c1OC(=O)Nc1ccc(Cl)c(Cl)c1 | inconclusive: 29.1 µM [inhibitor, single point] | – |
| Cc1ccc(CNC(=O)C2CCCN(S(=O)(=O)c3ccc(F)cc3)C2)cc1 (centres undefined) | – | inactive: 2.43% |
| Cc1ccc(NC(=O)CSc2nc3ccccc3c3nc(CCn4cncc4C)nn23)cc1F | inconclusive: 35.5 µM [inhibitor, single point] | – |
| CCOC(=O)N1CCN(C(=S)Nc2ccccc2C(C)C)CC1 | inconclusive: 1 µM [inhibitor, full curve, poor fit] | – |
| COc1ccc(C(=O)OCC(=O)Nc2ccc(OC)c(S(=O)(=O)N3CCCCC3)c2)cc1[N+](=O)[O-] | inconclusive: 35.5 µM [inhibitor, single point] | – |
| COc1ccc(CN(C2CCCC2)S(=O)(=O)c2ccc(-n3cnnn3)cc2)cc1OC | – | inactive: 1.51% |
| Cc1ccc(Nc2nnc(SCC(=O)NCCN3C(=O)CSC3=O)s2)cc1 | inconclusive: 13 µM [activator, partial curve, poor fit] | – |
| CCOC(=O)N1CCC(n2c(SCC(=O)NCc3ccco3)nc3ccsc3c2=O)CC1 | inconclusive: 2.91 µM [inhibitor, full curve] | – |
| Cc1ccc(CCNC(=O)C2CCN(c3nnc(C)c4c(C)n(-c5ccccc5)nc34)CC2)cc1 | – | inactive: 28.6% [at 46.1 µM] |
| CC(C)Cc1nc(N2CCC(C(N)=O)CC2)c2nnn(Cc3ccccc3)c2n1 | – | inactive: 1.93% |
| COc1ccc(-c2cc(C(=O)Oc3cccc(C)c3)c3ccccc3n2)cc1 | inconclusive: 1 µM [activator, full curve, poor fit] | – |
